7 targets from the supplement of paper PMC12067093, “Discovery and optimisation of a covalent ligand for TRIM25 and its application to targeted protein ubiquitination” (Chemical Science, 2025) can be followed below.

Sequences of proteins named here, by UniProt entry; tags and fusion partners are left off. A change or cut given only in a name is not applied to a line headed by its entry.
UniProt Q6ULP2: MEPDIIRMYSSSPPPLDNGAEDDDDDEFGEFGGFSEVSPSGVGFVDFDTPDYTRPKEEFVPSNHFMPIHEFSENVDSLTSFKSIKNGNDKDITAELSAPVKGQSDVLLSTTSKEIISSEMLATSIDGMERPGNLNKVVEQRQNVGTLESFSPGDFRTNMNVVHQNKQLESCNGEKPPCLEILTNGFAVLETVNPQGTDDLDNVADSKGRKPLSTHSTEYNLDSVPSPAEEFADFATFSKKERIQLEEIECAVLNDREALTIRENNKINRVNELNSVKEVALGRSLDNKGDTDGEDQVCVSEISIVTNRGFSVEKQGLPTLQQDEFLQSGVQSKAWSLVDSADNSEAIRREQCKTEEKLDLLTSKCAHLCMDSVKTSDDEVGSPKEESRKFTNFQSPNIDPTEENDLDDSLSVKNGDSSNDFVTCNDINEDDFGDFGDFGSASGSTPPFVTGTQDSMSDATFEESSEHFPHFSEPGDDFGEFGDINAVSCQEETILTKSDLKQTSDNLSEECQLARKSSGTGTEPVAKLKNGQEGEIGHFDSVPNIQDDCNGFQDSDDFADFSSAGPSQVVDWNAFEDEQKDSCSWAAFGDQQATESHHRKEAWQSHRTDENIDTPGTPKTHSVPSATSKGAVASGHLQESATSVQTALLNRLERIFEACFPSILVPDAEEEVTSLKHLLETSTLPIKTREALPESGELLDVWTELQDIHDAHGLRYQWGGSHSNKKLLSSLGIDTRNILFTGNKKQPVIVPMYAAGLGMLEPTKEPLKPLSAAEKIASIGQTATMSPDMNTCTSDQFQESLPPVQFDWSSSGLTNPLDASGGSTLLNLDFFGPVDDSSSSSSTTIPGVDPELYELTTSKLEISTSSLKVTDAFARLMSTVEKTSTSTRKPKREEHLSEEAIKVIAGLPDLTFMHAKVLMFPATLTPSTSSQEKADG
UniProt Q96SZ5, whole entry, looked up: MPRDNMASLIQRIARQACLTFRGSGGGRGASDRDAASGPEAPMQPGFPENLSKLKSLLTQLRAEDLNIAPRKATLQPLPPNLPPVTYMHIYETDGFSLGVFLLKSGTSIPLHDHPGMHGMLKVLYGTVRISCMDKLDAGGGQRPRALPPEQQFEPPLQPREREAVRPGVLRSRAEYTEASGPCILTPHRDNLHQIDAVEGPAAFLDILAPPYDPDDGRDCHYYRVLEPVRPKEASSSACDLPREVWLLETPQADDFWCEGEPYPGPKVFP
UniProt P55265: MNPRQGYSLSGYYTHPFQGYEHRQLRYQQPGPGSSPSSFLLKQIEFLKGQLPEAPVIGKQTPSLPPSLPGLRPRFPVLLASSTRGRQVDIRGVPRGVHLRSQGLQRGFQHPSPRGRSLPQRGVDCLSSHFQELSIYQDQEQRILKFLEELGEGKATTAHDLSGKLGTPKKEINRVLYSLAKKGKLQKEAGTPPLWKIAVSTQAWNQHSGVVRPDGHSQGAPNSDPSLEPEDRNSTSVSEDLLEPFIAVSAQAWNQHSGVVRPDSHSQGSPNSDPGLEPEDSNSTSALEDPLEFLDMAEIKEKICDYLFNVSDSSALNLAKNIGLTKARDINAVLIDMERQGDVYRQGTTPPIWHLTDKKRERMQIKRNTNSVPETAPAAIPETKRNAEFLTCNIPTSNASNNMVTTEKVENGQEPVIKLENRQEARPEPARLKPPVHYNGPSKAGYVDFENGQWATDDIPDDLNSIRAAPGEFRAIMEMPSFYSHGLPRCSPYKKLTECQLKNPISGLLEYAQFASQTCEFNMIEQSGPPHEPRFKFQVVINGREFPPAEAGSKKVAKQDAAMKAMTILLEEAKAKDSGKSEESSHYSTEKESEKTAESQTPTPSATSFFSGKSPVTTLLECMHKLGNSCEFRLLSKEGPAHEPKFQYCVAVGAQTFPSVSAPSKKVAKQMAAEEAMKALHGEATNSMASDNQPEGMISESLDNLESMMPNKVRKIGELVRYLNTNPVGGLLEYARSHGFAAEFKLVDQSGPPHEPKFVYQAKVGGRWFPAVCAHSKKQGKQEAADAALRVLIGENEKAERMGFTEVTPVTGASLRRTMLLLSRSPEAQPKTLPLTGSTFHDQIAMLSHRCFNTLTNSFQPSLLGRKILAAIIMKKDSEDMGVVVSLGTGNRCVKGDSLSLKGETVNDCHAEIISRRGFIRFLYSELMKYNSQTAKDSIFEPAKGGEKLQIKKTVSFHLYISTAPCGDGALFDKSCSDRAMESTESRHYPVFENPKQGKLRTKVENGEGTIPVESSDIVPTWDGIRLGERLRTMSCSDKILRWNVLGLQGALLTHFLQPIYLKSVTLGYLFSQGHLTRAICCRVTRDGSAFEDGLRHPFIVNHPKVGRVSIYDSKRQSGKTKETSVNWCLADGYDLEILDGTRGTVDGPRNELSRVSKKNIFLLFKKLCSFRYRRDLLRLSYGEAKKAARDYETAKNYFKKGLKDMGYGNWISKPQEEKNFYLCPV
UniProt O60488: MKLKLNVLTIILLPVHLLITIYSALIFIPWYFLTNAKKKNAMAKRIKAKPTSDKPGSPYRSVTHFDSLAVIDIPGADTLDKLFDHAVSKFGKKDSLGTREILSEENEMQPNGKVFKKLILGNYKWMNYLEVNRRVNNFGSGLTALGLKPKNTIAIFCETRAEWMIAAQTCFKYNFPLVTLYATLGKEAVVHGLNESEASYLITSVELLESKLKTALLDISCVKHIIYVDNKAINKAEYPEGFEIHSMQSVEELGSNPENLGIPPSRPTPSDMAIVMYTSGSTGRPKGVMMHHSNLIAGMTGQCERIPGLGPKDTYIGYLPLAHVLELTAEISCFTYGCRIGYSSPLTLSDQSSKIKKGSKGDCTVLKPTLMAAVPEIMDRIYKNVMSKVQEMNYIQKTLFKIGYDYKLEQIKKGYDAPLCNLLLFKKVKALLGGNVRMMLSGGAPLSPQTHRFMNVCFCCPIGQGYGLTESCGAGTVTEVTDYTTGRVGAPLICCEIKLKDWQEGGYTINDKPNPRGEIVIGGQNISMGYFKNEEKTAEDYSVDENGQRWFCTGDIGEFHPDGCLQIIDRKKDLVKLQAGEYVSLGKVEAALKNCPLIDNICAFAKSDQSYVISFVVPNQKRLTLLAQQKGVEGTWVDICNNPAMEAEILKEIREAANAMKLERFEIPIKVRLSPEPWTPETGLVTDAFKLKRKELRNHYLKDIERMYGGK
UniProt Q16186: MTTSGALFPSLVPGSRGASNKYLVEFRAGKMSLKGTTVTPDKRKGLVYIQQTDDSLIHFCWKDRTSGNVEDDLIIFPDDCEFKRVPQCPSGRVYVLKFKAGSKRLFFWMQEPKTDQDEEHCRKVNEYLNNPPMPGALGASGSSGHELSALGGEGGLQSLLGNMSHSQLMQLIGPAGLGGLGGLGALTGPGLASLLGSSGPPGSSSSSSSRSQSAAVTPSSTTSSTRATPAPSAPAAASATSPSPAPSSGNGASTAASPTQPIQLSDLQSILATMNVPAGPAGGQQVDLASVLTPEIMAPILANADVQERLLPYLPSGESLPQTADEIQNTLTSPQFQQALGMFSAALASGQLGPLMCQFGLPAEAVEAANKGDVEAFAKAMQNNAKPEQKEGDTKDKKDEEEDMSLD
UniProt P78536: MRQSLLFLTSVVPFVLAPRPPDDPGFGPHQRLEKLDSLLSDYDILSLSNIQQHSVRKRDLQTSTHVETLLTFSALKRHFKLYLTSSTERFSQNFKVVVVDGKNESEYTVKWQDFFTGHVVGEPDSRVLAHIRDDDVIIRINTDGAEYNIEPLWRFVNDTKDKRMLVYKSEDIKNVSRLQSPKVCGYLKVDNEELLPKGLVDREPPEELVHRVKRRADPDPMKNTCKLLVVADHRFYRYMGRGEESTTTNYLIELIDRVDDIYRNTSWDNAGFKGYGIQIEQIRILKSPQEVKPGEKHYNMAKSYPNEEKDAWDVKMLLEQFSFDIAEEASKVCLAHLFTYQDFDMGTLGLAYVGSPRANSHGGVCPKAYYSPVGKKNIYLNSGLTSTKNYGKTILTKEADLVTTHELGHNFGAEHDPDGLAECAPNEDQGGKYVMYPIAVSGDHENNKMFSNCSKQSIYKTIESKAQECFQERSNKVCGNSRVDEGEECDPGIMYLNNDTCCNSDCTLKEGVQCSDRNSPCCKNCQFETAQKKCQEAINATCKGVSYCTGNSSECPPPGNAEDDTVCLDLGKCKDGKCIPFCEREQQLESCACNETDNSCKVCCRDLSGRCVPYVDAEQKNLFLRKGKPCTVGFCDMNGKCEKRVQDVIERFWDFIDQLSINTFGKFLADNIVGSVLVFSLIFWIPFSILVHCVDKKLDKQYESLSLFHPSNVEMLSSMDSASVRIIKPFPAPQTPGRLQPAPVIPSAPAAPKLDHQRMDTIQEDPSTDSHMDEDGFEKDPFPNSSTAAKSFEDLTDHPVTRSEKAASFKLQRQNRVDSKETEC

Compound in this test: CC1Cc2ccccc2N1C(=O)C1CCCN(C1)C(=O)CCl (mixture of isomers) [TRIM25 ligand 11 (diastereomer mixture)]
The test can be described thus: probe-labelled cysteine peptide fold change vs DMSO (competition) (log2 fold change); higher = less target engagement (more negative = stronger competition). Particulars: THP-1, incubation time: 4 h.

Some of the results follow.
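Note: competitive chemoproteomic profiling in live THP-1 cells with an iodoacetamide desthiobiotin (IA-DTB) probe, comparing probe-labelled peptide intensities in compound-treated cells against DMSO-treated controls.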

Turning to “AFTPH_Q6ULP2_659_IFEACFPSILVPDAEEEVTSLK (UniProt Q6ULP2)”, the “probe-labelled cysteine peptide fold change” value was -0.105 (10 µM) and -0.236 (50 µM).
For “ADO_Q96SZ5_183_SRAEYTEASGPCILTPHR (UniProt Q96SZ5)”, in that order: 0.000339 and 0.423.
Take “ADAR_P55265_851_CFNTLTNSFQPSLLGR (UniProt P55265)”: the “probe-labelled cysteine peptide fold change” value (10 µM) is -0.0403 and the “probe-labelled cysteine peptide fold change” value (50 µM) was 0.114.
Consider “ACSL4_O60488_420_GYDAPLCNLLLFK (UniProt O60488)”, for which the “probe-labelled cysteine peptide fold change” value is -0.0473 (10 µM) and 0.0577 (50 µM).
Regarding “ACSL4_O60488_595_NCPLIDNICAFAK (UniProt O60488)”, the “probe-labelled cysteine peptide fold change” value (10 µM) is -0.0982 and the “probe-labelled cysteine peptide fold change” value (50 µM) was -0.212.
Turning to “ADRM1_Q16186_80_TSGNVEDDLIIFPDDCEFK (UniProt Q16186)”, the “probe-labelled cysteine peptide fold change” value came to 0.0252 (10 µM) and 0.000474 (50 µM).
As for “ADAM17_P78536_630_KGKPCTVGFCDMNGK (UniProt P78536)”, the “probe-labelled cysteine peptide fold change” value was -0.0882 (10 µM) and -0.186 (50 µM).
